Literature values, collected in patent US9149455B2, “Methods of treating melanoma” (Abraxis BioScience, LLC, priority 2012, dated 2015).
At least one compound was matched to its structure with a doubt left.

Test system: metastatic melanoma
Details: cited from earlier work

Compound | response rate (metastatic/advanced melanoma, Finn L et al., BMC Medicine 2012) | effect on median overall survival (metastatic melanoma, literature)
CCCS(=O)(=O)Nc1ccc(F)c(C(=O)c2c[nH]c3ncc(-c4ccc(Cl)cc4)cc23)c1F [vemurafenib] | high response rate | 
CN(C)/N=N/c1[nH]cnc1C(N)=O [Dacarbazine, dacarbazine] |  | neither of which increased median overall survival
